# The other results are listed elsewhere or left out.
# Legend:
# Assay in all cases: glycan array binding signal (z-score within array); higher = stronger binding
# Details in all cases: glycan notation: IUPAC condensed, linker removed
# [1] = target: Neu5Ac(a2-8)Neu5Ac
# Method in brief: (§1)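 Glycan array data were curated from 3228 arrays in the Consortium for Functional Glycomics database and kept only where the protein sequence was available. Glycan names were converted to IUPAC-condensed notation, and columns mapping to the same glycan were averaged. The binding signal is a within-array Z-score, averaged across arrays of the same protein sequence at different concentrations or buffers and across linkers. Negative Z-scores can be read as non-binding.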
# [2] = target: Neu5Ac(a2-8)Neu5Ac(a2-3)Gal(b1-3)GalNAc(b1-4)[Neu5Ac(a2-3)]Gal(b1-4)Glc
# Method in brief: as §1
# [3] = target: Neu5Ac(a2-8)Neu5Ac(a2-3)Gal(b1-3)GalNAc(b1-4)[Neu5Ac(a2-8)Neu5Ac(a2-3)]Gal(b1-4)Glc
# Method in brief: as §1
# [4] = target: Neu5Ac(a2-8)Neu5Ac(a2-3)Gal(b1-4)Glc
# Method in brief: as §1
# [5] = target: Neu5Ac(a2-8)Neu5Ac(a2-3)Gal(b1-4)GlcNAc
# Method in brief: as §1
# [6] = target: Neu5Ac(a2-8)Neu5Ac(a2-3)[Gal(b1-3)GalNAc(b1-4)]Gal(b1-4)Glc
# Method in brief: as §1
# [7] = target: Neu5Ac(a2-8)Neu5Ac(a2-3)[GalNAc(b1-4)]Gal(b1-4)Glc
# Method in brief: as §1
# [8] = target: Neu5Ac(a2-8)Neu5Ac(a2-8)Neu5Ac
# Method in brief: as §1
# [9] = target: Neu5Ac(a2-8)Neu5Ac(a2-8)Neu5Ac(a2-3)Gal(b1-4)Glc
# Method in brief: as §1
# [10] = target: Neu5Ac(a2-8)Neu5Ac(a2-8)Neu5Ac(a2-3)[Gal(b1-3)GalNAc(b1-4)]Gal(b1-4)Glc
# Method in brief: as §1
# [11] = target: Neu5Ac(a2-8)Neu5Ac(a2-8)Neu5Ac(a2-3)[GalNAc(b1-4)]Gal(b1-4)Glc
# Method in brief: as §1
# [12] = target: Neu5Ac(a2-8)Neu5Ac(a2-8)Neu5Ac(a2-8)Neu5Ac(a2-3)[GalNAc(b1-4)]Gal(b1-4)Glc
# Method in brief: as §1
# [13] = target: Neu5Ac(a2-8)Neu5Gc(a2-3)Gal(b1-4)GlcNAc
# Method in brief: as §1
# [14] = target: Neu5Ac(b2-6)Gal(b1-4)GlcNAc
# Method in brief: as §1
# [15] = target: Neu5Ac(b2-6)GalNAc
# Method in brief: as §1
# [16] = target: Neu5Ac9Ac(a2-3)Gal(b1-3)GlcNAc
# Method in brief: as §1
# [17] = target: Neu5Ac9Ac(a2-3)Gal(b1-4)GlcNAc
# Method in brief: as §1
# [18] = target: Neu5Ac9Ac(a2-6)Gal(b1-4)GlcNAc
# Method in brief: as §1
# [19] = target: Neu5Gc(a2-3)Gal(b1-3)GlcNAc
# Method in brief: as §1
# [20] = target: Neu5Gc(a2-3)Gal(b1-3)[Fuc(a1-4)]GlcNAc
# Method in brief: as §1
# [21] = target: Neu5Gc(a2-3)Gal(b1-4)Glc
# Method in brief: as §1
# [22] = target: Neu5Gc(a2-3)Gal(b1-4)GlcNAc
# Method in brief: as §1
# [23] = target: Neu5Gc(a2-3)Gal(b1-4)GlcNAc(b1-3)Gal(b1-4)GlcNAc(b1-2)Man(a1-3)[Neu5Gc(a2-3)Gal(b1-4)GlcNAc(b1-3)Gal(b1-4)GlcNAc(b1-2)Man(a1-6)]Man(b1-4)GlcNAc(b1-4)GlcNAc
# Method in brief: as §1
# [24] = target: Neu5Gc(a2-3)Gal(b1-4)[Fuc(a1-3)]GlcNAc
# Method in brief: as §1
# [25] = target: Neu5Gc(a2-6)Gal(b1-4)GlcNAc
# Method in brief: as §1
# [26] = target: Neu5Gc(a2-6)GalNAc
# Method in brief: as §1
# [27] = target: Neu5Gc(a2-8)Neu5Ac(a2-3)Gal(b1-4)GlcNAc
# Method in brief: as §1
# [28] = target: Neu5Gc(a2-8)Neu5Gc(a2-3)Gal(b1-4)GlcNAc
# Method in brief: as §1
# [29] = target: Neu5Gc(a2-8)Neu5Gc(a2-3)Gal(b1-4)GlcNAc(b1-3)Gal(b1-4)GlcNAc
# Method in brief: as §1
# [30] = target: Neu5Gc(a2-8)Neu5Gc(a2-6)Gal(b1-4)GlcNAc
# Method in brief: as §1
# [31] = target: Neu5Gc(b2-6)Gal(b1-4)GlcNAc
# Method in brief: as §1
binder,measurement,setting,value
PX9961K-bvu-480-28-480 (Bacteroides vulgatus) (protein) NKIPTTMAFRTVTDVDNAVNGLYDLMSGSGYYGAAMFAYGDMKGDDMQSSEESGVCNTCYMFNHRPNSLNAGSLWGRPFYILREAWNILNAIAEGKIESGDEKKLNALKGETMAVIALCQFDLTRCFGYPYTKDKGASLGAPLIDHLVGTYENPPRSTVAQAYDFIIETLEEAVTLMSEEKNNGRMNKYAARALLARIYLYHDDNRKAFDLADQLIKDADTSGSYALYPHEKYVAAWSVEAKFGSESFFEIANSVDDTPGRDSWGYLLNWYGYQKGFVTQKYAEQMLADPGDVRGHLLEENKYAGKTVWWLYKLRGTDLKTAPLECNNVVLRLSEVYLIAAEAGCKLGGDAAVQGLGYLNEIVKRGNPDNEVTMADYTLDRVLDERSKELVGEGHRFFDLLRNGKTIVRKGGYHLPSVDEEVDWDFYKCVLPIPEDQFIFSPEMEQNPGYPKN,glycan array binding signal (z-score),[1],-0.144
same,glycan array binding signal (z-score),[2],0.209
same,glycan array binding signal (z-score),[3],-0.442
same,glycan array binding signal (z-score),[4],-0.84
same,glycan array binding signal (z-score),[5],-0.587
same,glycan array binding signal (z-score),[6],-0.283
same,glycan array binding signal (z-score),[7],1.37
same,glycan array binding signal (z-score),[8],-0.804
same,glycan array binding signal (z-score),[9],0.763
same,glycan array binding signal (z-score),[10],-0.141
same,glycan array binding signal (z-score),[11],-0.463
same,glycan array binding signal (z-score),[12],0.837
same,glycan array binding signal (z-score),[13],19.1
same,glycan array binding signal (z-score),[14],-0.708
same,glycan array binding signal (z-score),[15],0.065
same,glycan array binding signal (z-score),[16],-0.942
same,glycan array binding signal (z-score),[17],0.711
same,glycan array binding signal (z-score),[18],-0.16
same,glycan array binding signal (z-score),[19],-0.227
same,glycan array binding signal (z-score),[20],-0.201
same,glycan array binding signal (z-score),[21],-0.786
same,glycan array binding signal (z-score),[22],0.165
same,glycan array binding signal (z-score),[23],0.711
same,glycan array binding signal (z-score),[24],-0.246
same,glycan array binding signal (z-score),[25],-0.443
same,glycan array binding signal (z-score),[26],-0.48
same,glycan array binding signal (z-score),[27],0.097
same,glycan array binding signal (z-score),[28],-0.371
same,glycan array binding signal (z-score),[29],-0.216
same,glycan array binding signal (z-score),[30],-0.167
same,glycan array binding signal (z-score),[31],-0.909
